1 molecule from article PMC2954458 (Biochemistry, 2010) can be followed below.

Amino acid sequences for entries named in this document (tags omitted). A change or cut given only in a name is not applied to a line headed by its entry.
UniProt P33302: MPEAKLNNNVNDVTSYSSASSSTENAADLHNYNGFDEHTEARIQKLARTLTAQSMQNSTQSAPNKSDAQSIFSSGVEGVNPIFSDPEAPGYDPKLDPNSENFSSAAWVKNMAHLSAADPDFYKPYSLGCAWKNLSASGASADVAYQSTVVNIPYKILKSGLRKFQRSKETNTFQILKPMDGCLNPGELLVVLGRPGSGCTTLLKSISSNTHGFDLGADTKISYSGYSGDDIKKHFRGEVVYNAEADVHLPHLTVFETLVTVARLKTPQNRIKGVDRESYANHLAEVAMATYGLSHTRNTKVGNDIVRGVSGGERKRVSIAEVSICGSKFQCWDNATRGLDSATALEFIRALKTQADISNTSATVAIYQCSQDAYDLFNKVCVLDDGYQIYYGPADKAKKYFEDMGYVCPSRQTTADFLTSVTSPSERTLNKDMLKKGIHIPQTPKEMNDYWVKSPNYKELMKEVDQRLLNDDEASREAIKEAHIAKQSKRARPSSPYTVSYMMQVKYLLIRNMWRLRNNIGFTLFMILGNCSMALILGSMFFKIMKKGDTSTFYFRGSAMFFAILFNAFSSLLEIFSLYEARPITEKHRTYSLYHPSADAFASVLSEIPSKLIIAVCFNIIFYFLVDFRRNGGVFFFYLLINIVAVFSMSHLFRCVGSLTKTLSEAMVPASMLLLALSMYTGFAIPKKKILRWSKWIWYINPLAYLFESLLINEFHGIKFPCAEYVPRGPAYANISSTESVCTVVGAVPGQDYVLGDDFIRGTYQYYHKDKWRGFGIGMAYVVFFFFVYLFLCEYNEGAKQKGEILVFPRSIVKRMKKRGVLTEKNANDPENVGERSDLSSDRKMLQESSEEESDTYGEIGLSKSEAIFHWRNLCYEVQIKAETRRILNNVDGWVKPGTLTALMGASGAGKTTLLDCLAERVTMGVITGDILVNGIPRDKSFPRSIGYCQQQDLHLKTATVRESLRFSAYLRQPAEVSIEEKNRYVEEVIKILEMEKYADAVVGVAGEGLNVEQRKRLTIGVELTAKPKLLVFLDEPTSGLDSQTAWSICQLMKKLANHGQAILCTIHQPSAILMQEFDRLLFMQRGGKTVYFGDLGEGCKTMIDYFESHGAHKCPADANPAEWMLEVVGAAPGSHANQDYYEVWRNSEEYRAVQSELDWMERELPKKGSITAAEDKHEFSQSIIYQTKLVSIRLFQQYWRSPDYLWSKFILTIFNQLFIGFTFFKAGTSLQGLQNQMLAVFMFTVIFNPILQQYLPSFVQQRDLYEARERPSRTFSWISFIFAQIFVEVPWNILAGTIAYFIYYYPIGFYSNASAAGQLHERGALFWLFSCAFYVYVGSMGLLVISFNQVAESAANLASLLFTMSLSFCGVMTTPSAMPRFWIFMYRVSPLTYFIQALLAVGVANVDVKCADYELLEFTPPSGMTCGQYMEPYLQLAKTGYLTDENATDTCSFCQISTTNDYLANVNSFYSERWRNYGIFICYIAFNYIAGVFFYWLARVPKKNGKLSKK

In this assay the target is Pdr5 (Saccharomyces cerevisiae, UniProt P33302). In words: biochemical.

As usually defined, the IC50 is the concentration that inhibits the measured activity by half. On to `Clc1ccccc1C(c1ccccc1)(c1ccccc1)n1ccnc1` [clo, clotrimazole], for which the IC50 is around 20 µM.
